Experimental data as given in article PMC3327649.
These are yes or no findings as the source states them, for the method shown. Binding seen in cells or lysates may run through a third protein. Binding can be weak; no strength is given. For part of these data: Tags and fused reporters may be left off the sequences shown.

Amino acid sequences for entries named in this document (tags omitted). A change or cut given only in a name is not applied to a line headed by its entry.
UniProt P67774: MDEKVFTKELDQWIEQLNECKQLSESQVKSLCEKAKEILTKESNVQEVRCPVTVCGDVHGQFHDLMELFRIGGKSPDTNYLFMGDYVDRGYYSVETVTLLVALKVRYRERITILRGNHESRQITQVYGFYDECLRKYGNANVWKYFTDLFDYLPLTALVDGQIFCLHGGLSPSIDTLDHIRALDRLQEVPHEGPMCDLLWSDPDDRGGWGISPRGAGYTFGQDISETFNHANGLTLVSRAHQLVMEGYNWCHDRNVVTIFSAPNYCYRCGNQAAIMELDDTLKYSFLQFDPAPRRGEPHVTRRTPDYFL

T1: Ezrin-radixin-moesin (ERM)-binding phosphoprotein 50 (EBP50), endogenous in BPAEC (bovine (endogenous in BPAEC)) (UniProt Q3SZK8)
T1 sequence: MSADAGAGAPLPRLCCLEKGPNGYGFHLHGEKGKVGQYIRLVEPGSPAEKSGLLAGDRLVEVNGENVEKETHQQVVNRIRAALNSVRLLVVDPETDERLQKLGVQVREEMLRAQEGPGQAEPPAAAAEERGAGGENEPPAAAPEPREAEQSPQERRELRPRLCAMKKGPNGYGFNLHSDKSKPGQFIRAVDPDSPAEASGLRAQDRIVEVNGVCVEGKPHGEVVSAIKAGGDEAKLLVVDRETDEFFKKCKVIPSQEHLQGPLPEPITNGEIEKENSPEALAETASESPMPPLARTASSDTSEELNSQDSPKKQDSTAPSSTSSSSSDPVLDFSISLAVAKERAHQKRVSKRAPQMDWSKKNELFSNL

T2: GST-tagged wild-type EBP50 (bovine) (UniProt Q3SZK8)
T2 sequence: T1 sequence

B1: Ezrin-radixin-moesin (ERM)-binding phosphoprotein 50 (EBP50), endogenous in BPAEC (protein, UniProt Q3SZK8 1-368)
chain: T1 sequence

Tests used:
[1] = target: T1, Ezrin-radixin-moesin (ERM)-binding phosphoprotein 50 (EBP50), endogenous in BPAEC (bovine (endogenous in BPAEC)); test: co-IP; endogenous EBP50 immunoprecipitated with anti-EBP50 antibody and protein G Sepharose from lysates of asynchronized, thymidine (early S) or nocodazole (mitotic) treated BPAEC; IP buffer 20 mM Tris HCl pH 7.4, 150 mM NaCl, 2 mM EDTA, 2 mM sodium vanadate, 1% Nonidet P-40, 4°C; Western blot for phosphatase subunits
[2] = target: T2, GST-tagged wild-type EBP50 (bovine); test: pull-down; GST-EBP50 (or GST) coupled to glutathione Sepharose incubated with BPAEC lysate for 2 h at 4°C; washed with PBS, eluted with 10 mM glutathione; Western blot with PP2A A, B, B′ or C specific antibodies; only the target purified
[3] = target: Protein phosphatase 2A C subunit (PP2Ac), endogenous in BPAEC (bovine (endogenous in BPAEC)) (UniProt P67774); test: co-IP; endogenous PP2A C subunit immunoprecipitated with anti-PP2Ac antibody and protein G Sepharose from lysates of thymidine or nocodazole treated BPAEC; same IP buffer, 4°C; Western blot for EBP50

binding [1] | binding [2] | binding [3] | Molecule
binds | binds |  | Protein phosphatase 2A C subunit (PP2Ac), endogenous in BPAEC (from UniProt P67774) (enzyme)
 | no binding |  | Protein phosphatase 2A B′ subunit, endogenous in BPAEC (bovine (endogenous in BPAEC))
binds | binds |  | Protein phosphatase 2A A subunit (PP2Aa), endogenous in BPAEC (bovine (endogenous in BPAEC))
 |  | binds | B1
